In PMC9118924:
No constants are given. Whether binding was seen depends on the method and setting. Binding seen in cells or lysates may run through a third protein. Some binding calls cover weakened binding; strength is not graded here.

Chains of the proteins cited; added tags and fusions are not shown. Lines headed by an entry give the natural chain unless they say otherwise; changes in a name come on top. A line that says so, or that is headed by a name, gives the form on record, which may keep a tag or linker.
UniProt Q9NQS5: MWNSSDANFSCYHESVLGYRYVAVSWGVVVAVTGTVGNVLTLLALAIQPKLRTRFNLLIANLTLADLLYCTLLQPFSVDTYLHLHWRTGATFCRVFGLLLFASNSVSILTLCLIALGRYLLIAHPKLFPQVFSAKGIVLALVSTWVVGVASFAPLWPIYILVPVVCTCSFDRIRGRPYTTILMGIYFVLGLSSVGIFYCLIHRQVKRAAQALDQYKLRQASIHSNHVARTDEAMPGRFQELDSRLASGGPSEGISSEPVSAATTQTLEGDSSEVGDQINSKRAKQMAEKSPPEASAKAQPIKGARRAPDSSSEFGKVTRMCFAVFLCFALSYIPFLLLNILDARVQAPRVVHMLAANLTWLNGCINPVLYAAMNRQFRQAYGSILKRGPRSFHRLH
Thr^263Ala,Thr^264Ala-GPR84-eYFP (Q9NQS5, form named): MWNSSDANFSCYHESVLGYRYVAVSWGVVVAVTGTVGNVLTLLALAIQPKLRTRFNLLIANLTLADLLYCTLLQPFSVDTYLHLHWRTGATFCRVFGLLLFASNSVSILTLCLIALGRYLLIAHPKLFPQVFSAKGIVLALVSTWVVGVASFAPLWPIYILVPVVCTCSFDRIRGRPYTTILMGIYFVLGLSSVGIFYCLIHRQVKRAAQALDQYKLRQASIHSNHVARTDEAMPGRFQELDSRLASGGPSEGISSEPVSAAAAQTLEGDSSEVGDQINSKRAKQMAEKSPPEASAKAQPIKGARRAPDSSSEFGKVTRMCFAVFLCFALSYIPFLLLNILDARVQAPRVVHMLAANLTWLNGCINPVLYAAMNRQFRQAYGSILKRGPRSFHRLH
Ser^221Ala, Ser^224Ala-GPR84-eYFP (Q9NQS5, form named): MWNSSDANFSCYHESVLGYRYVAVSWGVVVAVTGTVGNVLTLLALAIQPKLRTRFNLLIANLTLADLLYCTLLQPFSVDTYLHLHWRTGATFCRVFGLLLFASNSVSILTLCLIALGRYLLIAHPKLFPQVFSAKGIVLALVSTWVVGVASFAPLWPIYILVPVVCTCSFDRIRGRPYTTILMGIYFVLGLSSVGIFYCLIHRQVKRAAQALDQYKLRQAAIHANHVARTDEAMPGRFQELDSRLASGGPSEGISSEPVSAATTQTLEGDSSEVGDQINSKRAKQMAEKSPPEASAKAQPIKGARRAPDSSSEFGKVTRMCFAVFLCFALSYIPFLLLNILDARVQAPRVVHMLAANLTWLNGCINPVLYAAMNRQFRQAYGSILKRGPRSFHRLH
UniProt P49407: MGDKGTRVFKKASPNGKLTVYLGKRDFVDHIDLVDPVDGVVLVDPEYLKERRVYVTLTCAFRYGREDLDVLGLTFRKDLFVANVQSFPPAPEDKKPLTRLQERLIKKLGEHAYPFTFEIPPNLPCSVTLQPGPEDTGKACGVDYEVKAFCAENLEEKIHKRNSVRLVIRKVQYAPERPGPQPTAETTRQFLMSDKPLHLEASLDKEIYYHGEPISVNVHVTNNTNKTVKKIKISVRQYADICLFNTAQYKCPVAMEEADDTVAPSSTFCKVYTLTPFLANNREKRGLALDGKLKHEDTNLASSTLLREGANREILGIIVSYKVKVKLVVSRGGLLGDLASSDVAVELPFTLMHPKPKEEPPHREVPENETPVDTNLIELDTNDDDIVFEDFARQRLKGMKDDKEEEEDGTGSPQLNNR

Assays:
Assay in all cases: FRET or BRET; HEK293T cells transiently co-transfected with GPR84-eYFP (wild type or mutant) and arrestin-2- or arrestin-3-nanoluciferase (100:1); live cells in HBSS pH 7.4, nano-Glo substrate, agonist 2-HTP at varying concentrations (6-OAU too for wild type and Arg172Ala; co-addition of PSB-16671 or DL-175 for wild type) for 5 min at 37 °C; net BRET 535/475 nm
[1] = target: FLAG-human GPR84-eYFP (human) (UniProt Q9NQS5)
[2] = target: Thr^263Ala,Thr^264Ala-GPR84-eYFP (human) (UniProt Q9NQS5)
[3] = target: Ser^221Ala, Ser^224Ala-GPR84-eYFP (human) (UniProt Q9NQS5)

binding [1]: binds | binding [2]: no binding | binding [3]: binds
Substance: arrestin-2 fused to nanoluciferase (from UniProt P49407 1-418)
